In patent US11485769B2, “Peptides and combination of peptides for use in immunotherapy and methods for generating scaffolds for the use against pancreatic cancer and other cancers” (Immatics Biotechnologies GmbH, priority 2015, dated 2022):

System: tumors compared to a panel of normal tissues
Assay: Identification and label-free LC-MS quantitation of HLA-presented tumor associated peptides (presentation profiles/scores)
Design: species or system human; key to Peptide Presentation (presentation score): very highly over-presented on tumors compared to a panel of normal tissues (+++); highly over-presented on tumors compared to a panel of normal tissues (++); over-presented on tumors compared to a panel of normal tissues (+)
Conditions: for Peptide Presentation (presentation score): over-presentation on tumors compared to a panel of normal tissues, label-free LC-MS quantitation of HLA peptides

88 (IIDDTIFNL; listed as Homo sapiens) [compound 88]
Peptide Presentation (presentation score): ++

159 (SLLDLHTKV; listed as Homo sapiens) [compound 159]
Peptide Presentation (presentation score): +

54 (LTQPGPIASA; listed as Homo sapiens) [compound 54]
Peptide Presentation (presentation score): +++

135 (KLDDTYIKA; listed as Homo sapiens) [compound 135]
Peptide Presentation (presentation score): +++

155 (LLLDPDTAVLKL; listed as Homo sapiens) [compound 155]
Peptide Presentation (presentation score): ++

147 (YAFPKAVSV; listed as Homo sapiens) [compound 147]
Peptide Presentation (presentation score): +++

18 (ALFVRLLAL; listed as Homo sapiens) [compound 18]
Peptide Presentation (presentation score): +++

14 (FIIDNPQDLKV; listed as Homo sapiens) [compound 14]
Peptide Presentation (presentation score): +++

150 (ALFQPHLINV; listed as Homo sapiens) [compound 150]
Peptide Presentation (presentation score): ++

83 (ALSKEIYVI; listed as Homo sapiens) [compound 83]
Peptide Presentation (presentation score): +++

77 (RLFPGSSFL; listed as Homo sapiens) [compound 77]
Peptide Presentation (presentation score): +++

22 (ILSTEIFGV; listed as Homo sapiens) [compound 22]
peptide additionally detected on breast cancers (positive/measured samples): 3/18 | peptide additionally found on gallbladder cancers (positive/measured samples): 1/17 | peptide additionally found on head and neck cancers (positive/measured samples): 1/8 | peptide additionally found on leukocytic leukemia cancers (positive/measured samples): 5/17 | peptide additionally detected on lung cancers (positive/measured samples): 6/107 | peptide additionally found on lymph node cancers (positive/measured samples): 4/20 | peptide additionally detected on ovarian cancers (positive/measured samples): 1/20 | Peptide Presentation (presentation score): +++ | peptide additionally found on pancreas cancers (positive/measured samples): 1/19 | peptide additionally found on skin cancers (positive/measured samples): 1/18 | peptide additionally detected on stomach cancers (positive/measured samples): 1/21

108 (IADGGFTEL; listed as Homo sapiens) [compound 108]
Peptide Presentation (presentation score): +++

146 (VLISGVVHEI; listed as Homo sapiens) [compound 146]
peptide additionally detected on brain cancers (positive/measured samples): 7/34 | peptide additionally detected on breast cancers (positive/measured samples): 1/18 | peptide additionally found on colon or rectum cancers (positive/measured samples): 2/29 | peptide additionally detected on esophageal cancers (positive/measured samples): 1/18 | peptide additionally detected on kidney cancers (positive/measured samples): 1/23 | peptide additionally detected on liver cancers (positive/measured samples): 3/21 | peptide additionally detected on lung cancers (positive/measured samples): 5/107 | peptide additionally found on lymph node cancers (positive/measured samples): 1/20 | peptide additionally detected on ovarian cancers (positive/measured samples): 2/20 | Peptide Presentation (presentation score): +++ | peptide additionally detected on prostate cancers (positive/measured samples): 1/87 | peptide additionally found on skin cancers (positive/measured samples): 3/18 | peptide additionally found on uterus cancers (positive/measured samples): 1/16

101 (ALVEENGIFEL; listed as Homo sapiens) [compound 101]
peptide additionally found on bile duct cancers (positive/measured samples) (bile duct cancers): 1/17 | peptide additionally detected on breast cancers (positive/measured samples): 2/18 | peptide additionally found on colon or rectum cancers (positive/measured samples): 2/29 | peptide additionally detected on esophageal cancers (positive/measured samples): 2/18 | peptide additionally found on head and neck cancers (positive/measured samples): 2/8 | peptide additionally detected on liver cancers (positive/measured samples): 1/21 | peptide additionally detected on lung cancers (positive/measured samples): 7/107 | peptide additionally detected on ovarian cancers (positive/measured samples): 6/20 | peptide additionally detected on prostate cancers (positive/measured samples): 3/87 | peptide additionally detected on urinary bladder cancers (positive/measured samples): 4/15 | peptide additionally found on uterus cancers (positive/measured samples): 1/16

106 (FVWSGTAEA; listed as Homo sapiens) [compound 106]
Peptide Presentation (presentation score): +++

134 (ILLAEGRLVNL; listed as Homo sapiens) [compound 134]
Peptide Presentation (presentation score): +++

123 (KISTITPQI; listed as Homo sapiens) [compound 123]
peptide additionally detected on brain cancers (positive/measured samples): 2/34 | peptide additionally found on head and neck cancers (positive/measured samples): 2/8 | peptide additionally detected on kidney cancers (positive/measured samples): 1/23 | peptide additionally found on leukocytic leukemia cancers (positive/measured samples): 1/17 | peptide additionally detected on liver cancers (positive/measured samples): 2/21 | peptide additionally detected on lung cancers (positive/measured samples): 7/107 | peptide additionally found on lymph node cancers (positive/measured samples): 2/20 | peptide additionally found on myeloid cell cancers (positive/measured samples) (myeloid cell cancers): 1/18 | Peptide Presentation (presentation score): +++ | peptide additionally found on skin cancers (positive/measured samples): 1/18 | peptide additionally detected on stomach cancers (positive/measured samples): 1/45 | peptide additionally detected on urinary bladder cancers (positive/measured samples): 2/15 | peptide additionally found on uterus cancers (positive/measured samples): 3/16

107 (FVYGGPQVQL; listed as Homo sapiens) [compound 107]
Peptide Presentation (presentation score): +

45 (ILYSDDGQKWTV; listed as Homo sapiens) [compound 45]
Peptide Presentation (presentation score): +++

120 (VLVNDFFLV; listed as Homo sapiens) [compound 120]
Peptide Presentation (presentation score): ++

59 (SLSESFFMV; listed as Homo sapiens) [compound 59]
Peptide Presentation (presentation score): +

58 (RQYPWGVVQV; listed as Homo sapiens) [compound 58]
Peptide Presentation (presentation score): +++

72 (VMASPGGLSAV; listed as Homo sapiens) [compound 72]
Peptide Presentation (presentation score): +++

17 (GLIDYDTGIRL; listed as Homo sapiens) [compound 17]
Peptide Presentation (presentation score): ++

15 (FILANEHNV; listed as Homo sapiens) [compound 15]
Peptide Presentation (presentation score): +++

102 (ALYPGTDYTV; listed as Homo sapiens) [compound 102]
Peptide Presentation (presentation score): +

8 (ALYTGSALDFV; listed as Homo sapiens) [compound 8]
Peptide Presentation (presentation score): +++

100 (ALFGAGPASI; listed as Homo sapiens) [compound 100]
Peptide Presentation (presentation score): +++

27 (TLLAHPVTL; listed as Homo sapiens) [compound 27]
Peptide Presentation (presentation score): +

130 (FLFGEEPSKL; listed as Homo sapiens) [compound 130]
Peptide Presentation (presentation score): +

174 (TLDPRSFLL; listed as Homo sapiens) [compound 174]
Peptide Presentation (presentation score): ++

46 (TMVEHNYYV; listed as Homo sapiens) [compound 46]
peptide additionally detected on esophageal cancers (positive/measured samples): 1/18 | peptide additionally found on gallbladder cancers (positive/measured samples): 1/17 | peptide additionally found on head and neck cancers (positive/measured samples): 1/8 | peptide additionally detected on kidney cancers (positive/measured samples): 3/23 | peptide additionally detected on lung cancers (positive/measured samples): 9/107 | peptide additionally detected on ovarian cancers (positive/measured samples): 7/20 | Peptide Presentation (presentation score): +++ | peptide additionally found on pancreas cancers (positive/measured samples): 1/19 | peptide additionally found on skin cancers (positive/measured samples): 1/18 | peptide additionally detected on stomach cancers (positive/measured samples): 1/45 | peptide additionally detected on urinary bladder cancers (positive/measured samples): 2/15 | peptide additionally found on uterus cancers (positive/measured samples): 1/16

35 (FLFPSQYVDV; listed as Homo sapiens) [compound 35]
Peptide Presentation (presentation score): +++

62 (SVFPGARLL; listed as Homo sapiens) [compound 62]
Peptide Presentation (presentation score): +++

69 (VLFSGSLRL; listed as Homo sapiens) [compound 69]
peptide additionally detected on breast cancers (positive/measured samples): 2/18 | peptide additionally detected on esophageal cancers (positive/measured samples): 1/18 | peptide additionally found on gallbladder cancers (positive/measured samples): 1/17 | peptide additionally detected on lung cancers (positive/measured samples): 9/107 | peptide additionally detected on ovarian cancers (positive/measured samples): 1/20 | Peptide Presentation (presentation score): +++

74 (YIDKDLEYV; listed as Homo sapiens) [compound 74]
Peptide Presentation (presentation score): +++

48 (LLDENGVLKL; listed as Homo sapiens) [compound 48]
Peptide Presentation (presentation score): +++

24 (KLSENAGIQSL; listed as Homo sapiens) [compound 24]
Peptide Presentation (presentation score): +++

133 (ILDDVSLTHL; listed as Homo sapiens) [compound 133]
Peptide Presentation (presentation score): +++

42 (ILSDMRSQYEV; listed as Homo sapiens) [compound 42]
Peptide Presentation (presentation score): +++
